From patent publication US20210032312A1
No constants are given. Whether binding was seen depends on the method and setting. Some entries that bind do so weakly or less than the wild type.

Chains of the proteins cited; added tags and fusions are not shown. Residues count along the entry.
UniProt P01732, residues 22-182: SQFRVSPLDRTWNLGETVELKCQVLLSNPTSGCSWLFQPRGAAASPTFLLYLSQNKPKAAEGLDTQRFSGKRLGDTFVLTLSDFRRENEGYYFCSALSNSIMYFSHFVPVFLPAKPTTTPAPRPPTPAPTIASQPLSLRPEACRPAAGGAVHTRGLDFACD

Target: recombinant human CD8 alpha fused to Fc fragment of human IgG1 (human) (UniProt P01732)
Test: ELISA, biotinylated CD8W7 or CD8W13

Binder	binding
P282BR9P1357_D2 (designed binder) LPAPKNLVVSRVTEDSARLSWIKDGHPRHFDSFLIQYQESEKVGEAIVLTVPGSERSYDLTGLKPGTEYTVSIYGVDVVYDRGQLISSNPLSAIFTT	binds
P283ER9P1365_A1 (designed binder) LPAPKNLVVSRVTEDSARLSWTAPDAAFDSFGIAYVEWWHRGEAISLPVPGSERSYDLTGLKPGTEYNVIITGVKGGIPSHPLGAIFTT	binds
P283ER9P1365_A7 (designed binder) LPAPKNLVVSRVTEDSARLSWTAPDAAFDSFYIPYWESEVYGEAIALPVPGSERSYDLTGLKPGTEYQVSIIGVKGGVYSQPLAAIFTT	binds
P283ER9P1365_B6 (designed binder) LPAPKNLVVSRVTEDSARLSWTAPDAAFDSFGIGYAEPVVTGEAISLSVPGSERSYDLTGLKPGTEYWVVIIGVKGGINSYPLGAIFTT	binds
P283ER9P1365_C1 (designed binder) LPAPKNLVVSRVTEDSARLSWTAPDAAFDSFYIPYWESEVYGEAIALPVTGSERSYDLTGLKPGTEYQVSIIGVKGGVYSQPLAAIFTT	binds
P283ER9P1365_E2 (designed binder) LPAPKNLVVSRVTEDSARLSWTAPDAAFDSFYIPYRESEFRGEAIALPVPGSERSYDLTGLKPGTKYRVIIIGVKGGEFSQPLAAIFTT	binds
P283ER9P1365_F4 (designed binder) LPAPKNLVVSRVTEDSARLSWTAPDAAFDSFYIPYRESEFRGEAIALPVPGSERSYDLTGLKPGTKYSVIIIGVKGGEFSQPLGAIFTT	binds
P283ER9P1365_G1 (designed binder) LPAPKNLVVSRVTEDSARLSWTAPDAAFDSFYIPYRESEFRGEAIALSVPGSERSYDLTGLKPGTKYRVIIIGVKGGEFSQPLGAIFTT	binds
P283ER9P1365_G3 (designed binder) LPAPKNLVVSRVTEDSARLSWTAPDAAFDSFGISYYEWAPNGEAIQLSVPGSERSYDLTGLKPGTEYHVVIIGVKGGEPSHPLGAIFTT	binds
P283ER9P1365_H3 (designed binder) LPAPKNLVVSRVTEDSARLSWTAPDAAFDSFYIPYRESEFRGEAIALPVPGSERSYDLTGLKPGTKYRVIIIGVKGGEFSQPLSAIFTT	binds
P283FR9P1366_A1 (designed binder) LPAPKNLVVSRVTEDSARLSWTAPDAAFDSFWITYPEWPVPGEAIVLTVPGSERSYDLTGLKPGTEYAVFIWGVKGGDASEPLSAIFTT	binds
P282BR9P1357_E5 (designed binder) LPAPKNLVVSRVTEDSARLSWWPRKYQRPFDSFLIQYQESEKVGEAIVLTVPGSERSYDLTGLKPGTEYTVSIYGVDIEWIGNRPIASNPLSAIFTT	binds
P283FR9P1366_A5 (designed binder) LPAPKNLVVSRVTEDSARLSWTAPDAAFDSFWIAYPEWPTRGEAIVLTVPGSERSYDLTGLKPGTEYFVVIYGVKGGSPSPPLSAIFTT	binds
P283FR9P1366_A9 (designed binder) LPAPKNLVVSRVTEDSARLSWTAPDAAFDSFNIAYGEYPGPGEAIVLTVPGSERSYDLTGLKPGTEYWVPIWGVKGGELSEPLSAIFTT	binds
P283FR9P1366_B7 (designed binder) LPAPKNLVVSRVTEDSARLSWTAPDAAFDSFWITYPEWPVNGEAIVLTVPGSERSYDLTGLKPGTEYWVVIWGVKGGVESPPLSAIFTT	binds
P283FR9P1366_C2 (designed binder) LPAPKNLVVSRVTEDSARLSWTAPDAAFDSFKISYPEWPPEGEAIVLTVPGSERSYDLTGLKPGTEYAVFIWCVKGGEHSWPLSAIFTT	binds
